No constants are given. Whether binding was seen depends on the method and setting. Some entries that bind do so weakly or less than the wild type. Each block holds one binder with its values, some of them ahead of it.
Tests used:
Assay in all cases: two-hybrid; bacterial adenylate cyclase two-hybrid (BACTH) in E. coli cya BTH101; T25 and T18 fusions at N- or C-terminus co-expressed; co-transformants spotted on LB/X-gal, MacConkey/maltose and M63 plates with 0.5 mM IPTG, colour read after 48 h at 30 °C; 577 pairs screened; results as summarised in Table 2
[1] = biological target: T1, AftB (Corynebacterium glutamicum ATCC 13032) (UniProt Q8NLR0)
T1 sequence: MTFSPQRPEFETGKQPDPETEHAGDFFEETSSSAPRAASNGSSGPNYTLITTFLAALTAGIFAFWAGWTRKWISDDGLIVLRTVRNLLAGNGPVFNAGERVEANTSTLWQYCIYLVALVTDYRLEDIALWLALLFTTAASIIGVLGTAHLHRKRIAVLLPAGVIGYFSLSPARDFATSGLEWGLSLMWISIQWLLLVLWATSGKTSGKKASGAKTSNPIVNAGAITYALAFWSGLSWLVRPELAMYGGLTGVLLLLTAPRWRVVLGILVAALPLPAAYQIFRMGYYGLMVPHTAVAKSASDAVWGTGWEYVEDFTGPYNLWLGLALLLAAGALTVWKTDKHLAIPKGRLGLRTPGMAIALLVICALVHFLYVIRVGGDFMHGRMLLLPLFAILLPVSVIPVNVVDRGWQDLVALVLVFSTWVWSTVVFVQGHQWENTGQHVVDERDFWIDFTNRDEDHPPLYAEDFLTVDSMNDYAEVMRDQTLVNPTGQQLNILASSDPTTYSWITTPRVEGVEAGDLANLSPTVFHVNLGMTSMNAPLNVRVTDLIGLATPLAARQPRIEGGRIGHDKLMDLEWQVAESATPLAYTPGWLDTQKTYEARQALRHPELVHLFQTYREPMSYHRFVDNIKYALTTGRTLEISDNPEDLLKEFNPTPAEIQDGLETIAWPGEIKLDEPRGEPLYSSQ

[2] = biological target: T2, AftC (Corynebacterium glutamicum ATCC 13032) (UniProt Q8NPB7)
T2 sequence: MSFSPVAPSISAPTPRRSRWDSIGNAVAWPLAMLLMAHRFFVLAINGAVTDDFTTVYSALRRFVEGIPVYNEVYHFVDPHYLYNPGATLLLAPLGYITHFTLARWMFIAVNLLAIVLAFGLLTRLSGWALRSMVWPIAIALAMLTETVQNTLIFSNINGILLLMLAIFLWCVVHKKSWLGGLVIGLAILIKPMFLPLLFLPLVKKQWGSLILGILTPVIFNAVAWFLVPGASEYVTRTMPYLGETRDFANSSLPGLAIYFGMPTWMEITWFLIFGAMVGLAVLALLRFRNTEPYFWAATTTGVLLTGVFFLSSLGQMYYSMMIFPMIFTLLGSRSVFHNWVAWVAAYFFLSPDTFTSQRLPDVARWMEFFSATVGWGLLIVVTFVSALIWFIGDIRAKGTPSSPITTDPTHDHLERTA

[3] = biological target: AftA (Corynebacterium glutamicum ATCC 13032) (UniProt Q8NTW4)

binding [1]: binds
binding [2]: binds
B1: AftB (enzyme, Corynebacterium glutamicum ATCC 13032, UniProt Q8NLR0 1-686, looked up)
chain: T1 sequence
notes: AftB, arabinofuranosyltransferase, transmembrane, Corynebacterium glutamicum ATCC 13032; gene amplified from genomic DNA; One molecule for all four fusion forms; also called arabinofuranosyltransferase AftB; AftB-T25^N; source: E. coli BTH101, bacterial two-hybrid (BACTH) fusion; not shown: T25 or T18 fragment of Bordetella pertussis adenylate cyclase, N-terminal or C-terminal (each tested), kept

binding [3]: binds
binding [1]: binds
binding [2]: binds
B2: AftA (enzyme, Corynebacterium glutamicum ATCC 13032, UniProt Q8NTW4 1-661, looked up)
chain: MNPYGPSRVPEGEVYRPDRLNRKATLVAIVGAAILAFAFALVLWMGLKQTNLPAFGPSNVTRAVASATIAAVLIVTGFLTWLWLRDEHQSNPRWELEDVKPRPKWRTALTYLASYLSPAALVVAVLAIPLSATRLYLDGISVDQGFRTQFLTRMADDIGLSDMNYIDMPTFYPAGWFWLGGRLANLLGLPGWEAFQPWAIVSMAVAASVLVPVWQRITGSLPVATGIALVTTCIILAMNSEEPYAAIVAMGIPAMLVLASRIAKGDKFALAGGIIYLGVSATFYTLFTGAIALSAVAVCIVVAAIVQRSIKPLLWLAVLGGGSIVIALISWGPYLLASINGAERSGDSATHYLPLEGTQFPVPFLASSVVGLLCLVGLIYLVVRFHNNEVRAMWVGIAVFYAWMGMSMAITLLGNTLLGFRLDTVLVLIFATAGVLGIADFRLASVYQLYPTQITERTATHLTNLIVVLVLLGGLYYAQDLPQKNARAIDLAYTDTDGYGERADLYPAGAARYYKDINDHLLDQGFEPSETVVLTDELDFMSYYPYRGYQAFTSHYANPLGEFGNRNAFIEDLAIRSWDELADPQQFSDALNTSPWTIPEVFIFRGSIDDPDAGWKYDVAEDLYPNNPNVRFRGVYFNPESFDQMWQTKQVGPFVVVTHNE
notes: AftA, arabinofuranosyltransferase, transmembrane, Corynebacterium glutamicum ATCC 13032; gene amplified from genomic DNA; One molecule for all four fusion forms; also called arabinofuranosyltransferase AftA; AftA-T25^N; source: E. coli BTH101, bacterial two-hybrid (BACTH) fusion; not shown: T25 or T18 fragment of Bordetella pertussis adenylate cyclase, N-terminal or C-terminal (each tested), kept

binding [2]: binds
B3: AftC (enzyme, Corynebacterium glutamicum ATCC 13032, UniProt Q8NPB7 1-418, looked up)
chain: T2 sequence
notes: AftC, arabinofuranosyltransferase, transmembrane, Corynebacterium glutamicum ATCC 13032; gene amplified from genomic DNA; One molecule for all four fusion forms; also called arabinofuranosyltransferase AftC; AftC-T25^C; source: E. coli BTH101, bacterial two-hybrid (BACTH) fusion; not shown: T25 or T18 fragment of Bordetella pertussis adenylate cyclase, N-terminal or C-terminal (each tested), kept

— publication PMC4213368, “Elucidation of a protein-protein interaction network involved in Corynebacterium glutamicum cell wall biosynthesis as determined by bacterial two-hybrid analysis” (Glycoconjugate Journal, 2014)
